PubChem BioAssay AID1671195 – Yale University | 2021
Here is one part, drawn at random, of about 22,000 reagents. In the full data, about 1,510 (6.9%) were called active. 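Active includes knockdowns raising or lowering LDL uptake; positive z-scores mean more uptake, negative mean less.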 Entries without a mark were called inactive. No sequences are given here.

- Screen: 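Regulators of LDL receptor activity judged by labelled LDL uptake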 (primary screen)
- Cell system: human Huh7 hepatoma cells
- Reagent: siRNA pool against human genes, 18 nM
- Timing: about 2 to 2.5 days of knockdown, then 8 h LDL uptake
- Challenge: DiI-labelled LDL at 30 µg/ml for 8 h, in lipoprotein-deficient serum medium
- Detection: 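Per-cell DiI-LDL intensity by automated imaging; well means scaled to the plate median and given as a robust z-score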
- Reading the numbers: robust z-score: higher = more LDL uptake after knockdown
- Hit rule: 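a gene counts as active if at least two replicate z-scores exceed ±2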

The first 5 entries, to show the layout:
gene knocked down	robust z-score, replicate 1	robust z-score, replicate 2	robust z-score, replicate 3
HMX2 (H6 family homeobox 2)	-1.21	-1.51	-1.5
BEND7 (BEN domain containing 7)	-0.29	-0.535	-0.289
DSEL (dermatan sulfate epimerase like)	-1.38	-1.54	-1.21
OR52B6 (olfactory receptor family 52 subfamily B member 6)	0.756	0.164	0.155
GPR101 (G protein-coupled receptor 101)	-0.376	-0.0539	-0.262

Results, from the start:
gene knocked down	robust z-score, replicate 1	robust z-score, replicate 2	robust z-score, replicate 3
HMX2 (H6 family homeobox 2)	-1.21	-1.51	-1.5
BEND7 (BEN domain containing 7)	-0.29	-0.535	-0.289
DSEL (dermatan sulfate epimerase like)	-1.38	-1.54	-1.21
OR52B6 (olfactory receptor family 52 subfamily B member 6)	0.756	0.164	0.155
GPR101 (G protein-coupled receptor 101)	-0.376	-0.0539	-0.262
EIF4H (eukaryotic translation initiation factor 4H)	-0.0675	0.0111	-0.263
PTPRD (protein tyrosine phosphatase receptor type D)	0.617	0.278	0.352
GMPPB (GDP-mannose pyrophosphorylase B)	-0.528	-0.597	0.593
WFDC6 (WAP four-disulfide core domain 6)	-0.556	-1.26	-0.993
SSR1 (signal sequence receptor subunit 1)	0.929	0.429	0.756
LOC442654 (retired record)	-0.199	-0.331	-0.179
ZNF252P (zinc finger protein 252, pseudogene)	0.854	0.751	0.973
EXOSC5 (exosome component 5)	-0.245	-0.0496	-0.471
MAPKAPK2 (MAPK activated protein kinase 2)	-1.09	-0.341	-0.396
TOX2 (TOX high mobility group box family member 2)	-0.0396	-0.238	0.226
DGKK (diacylglycerol kinase kappa)	-0.572	0.15	-0.246
VPS50 (VPS50 subunit of EARP/GARPII complex)	3.9 (active)	1.77	2.83
CD209 (CD209 molecule)	-0.696	-0.138	-1.53
C1QTNF1 (C1q and TNF related 1)	-1.33	0.28	0.149
VXN (vexin)	0.128	-0.0171	0.0692
RGS8 (regulator of G protein signaling 8)	-0.356	-0.19	-0.0957
NPHP3 (nephrocystin 3)	-1.19	-0.809	0.305
TMBIM6 (transmembrane BAX inhibitor motif containing 6)	-1.96	-1.19	-0.382
ADAM28 (ADAM metallopeptidase domain 28)	0.23	-0.101	0.538
KRT36 (keratin 36)	-0.261	-0.871	-1.02
LY6G5B (lymphocyte antigen 6 family member G5B)	0.762	1.63	1.13
NOL10 (nucleolar protein 10)	1.06	1.01	1.24
LINC01551 (long independently transcribed non-coding RNA 1551)	1.35	1.13	0.947
BCL6B (BCL6B transcription repressor)	-0.403	-0.368	-0.449
CYTH3 (cytohesin 3)	-0.391	-0.425	-0.869
APOLTP (apolipoprotein lipid transfer particle homolog)	0.86	1.45	1.21
ZNF226 (zinc finger protein 226)	0.681	0.0837	0.0568
EAF1 (ELL associated factor 1)	-0.78	-0.639	-0.901
LINC02913 (long independently transcribed non-coding RNA 2913)	2.7 (active)	4.42	4.48
LOC442277 (retired record)	0.626	0.448	0.572
KRABD2 (KRAB domain containing 2)	1.45	0.378	0.388
PEAK1 (pseudopodium enriched atypical kinase 1)	0.0989	-0.437	0.547
RPL5 (ribosomal protein L5)	-0.921	-0.601	-1.45
FBLN2 (fibulin 2)	0.685	-0.356	-0.0684
EHD3 (EH domain containing 3)	-1.11	-1	-0.776
LINC00941 (long independently transcribed non-coding RNA 941)	-0.592	-0.89	-0.932
LENG8 (leukocyte receptor cluster member 8)	1.75	-0.852	0.413
MOS (MOS proto-oncogene, serine/threonine kinase)	-0.632	-0.22	-1.07
GATA3 (GATA binding protein 3)	0.678	0.157	0.372
H3C6 (H3 clustered histone 6)	2.2	0.301	1.67
LOC441340 (retired record)	0.194	-0.287	-0.427
